This note sets out measurements from publication PMC4974644.

These are yes or no findings as the source states them, for the method shown. In cells and extracts the contact can be indirect. These calls come from enrichment with a bait or labelling near it, and not all partners need be listed.

For this assay, the target named is T1, SALM4 (Lrfn3), endogenous in mouse forebrain (mouse (endogenous in forebrain)) (UniProt Q8BLY3).
T1 sequence: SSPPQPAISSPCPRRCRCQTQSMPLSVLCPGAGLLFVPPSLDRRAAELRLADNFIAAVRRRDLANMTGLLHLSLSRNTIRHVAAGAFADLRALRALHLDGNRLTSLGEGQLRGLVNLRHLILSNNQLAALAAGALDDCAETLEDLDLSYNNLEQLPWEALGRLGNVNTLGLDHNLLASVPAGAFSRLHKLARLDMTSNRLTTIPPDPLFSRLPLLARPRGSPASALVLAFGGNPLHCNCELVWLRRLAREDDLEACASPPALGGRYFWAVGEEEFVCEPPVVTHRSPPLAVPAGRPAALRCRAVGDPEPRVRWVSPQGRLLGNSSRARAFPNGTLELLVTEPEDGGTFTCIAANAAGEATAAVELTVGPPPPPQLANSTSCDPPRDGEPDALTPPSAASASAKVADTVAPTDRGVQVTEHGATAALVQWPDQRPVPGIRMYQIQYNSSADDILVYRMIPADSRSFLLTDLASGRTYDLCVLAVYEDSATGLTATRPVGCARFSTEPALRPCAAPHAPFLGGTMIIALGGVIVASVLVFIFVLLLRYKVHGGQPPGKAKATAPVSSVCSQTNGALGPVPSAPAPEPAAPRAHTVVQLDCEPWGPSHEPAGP
In words: affinity purification with mass spectrometry; mouse forebrain crude synaptosomes (WT and Salm4-/- control, 3 weeks) solubilised in PBS with 0.5% Triton X-100, 0.1% SDS, 0.5 mM EDTA, 0.5 mM EGTA; WGA column eluate immunoprecipitated with SALM4 antibodies (2026) on protein A-Sepharose; bands of a silver-stained gel analysed by LTQ-Orbitrap.

B1: SALM2 (Lrfn1), endogenous in mouse forebrain (protein, UniProt Q2WF71 32-766)
chain: QPCPGRCICQNVAPTLTMLCAKTGLLFVPPAIDRRVVELRLTDNFIAAVRRRDFANMTSLVHLTLSRNTIGQVAAGAFADLRALRALHLDSNRLAEVRGDQLRGLGNLRHLILGNNQIRKVESAAFDAFLSTVEDLDLSYNNLEALPWEAVGQMVNLNTLTLDHNLIDHIAEGTFVQLHKLVRLDMTSNRLHKLPPDGLFLRSQGGGPKPPTPLTVSFGGNPLHCNCELLWLRRLTREDDLETCATPEHLTDRYFWSIPEEEFLCEPPLITRQAGGRALVVEGQAVSLRCRAVGDPEPVVHWVAPDGRLLGNSSRTRVRGDGTLDVTITTLRDSGTFTCIASNAAGEATAPVEVCVVPLPLMAPPPAAPPPLTEPGSSDIATPGRPGANDSTSERRLVAAELTSSSVLIRWPAQRPVPGIRMYQVQYNSSADDSLVYRMIPSTSQTFLVNDLAAGRAYDLCVLAVYDDGATALPATRVVGCVQFTTAGDPAPCRPLRAHFLGGTMIIAIGGVIVASVLVFIVLLMIRYKVYGDGDSRRIKGTSRTPPRVSHVCSQTNGAGAQQASAPPAPDRYEALREVAVPAAIEAKAMEAEATSTELEVVLGRSLGGSATSLCLLPSEETSGEESRAMTGPRRSRSGALGPPTSAPPTLALVPGGAPARPRPQQRYSFDGDYGALFQSHSYPRRARRTKRHRSTPHLDGAGGGAAGEDGDLGLGSARARLAFTSTEWMLESTV
Take B1: the binding entry is “binds”.
